The target of the experiment is T1, MRTF-A (myocardin-related transcription factor A), endogenous in macrophages (mouse (endogenous in RAW264 and BMDMs)) (UniProt Q8K4J6).
T1 sequence: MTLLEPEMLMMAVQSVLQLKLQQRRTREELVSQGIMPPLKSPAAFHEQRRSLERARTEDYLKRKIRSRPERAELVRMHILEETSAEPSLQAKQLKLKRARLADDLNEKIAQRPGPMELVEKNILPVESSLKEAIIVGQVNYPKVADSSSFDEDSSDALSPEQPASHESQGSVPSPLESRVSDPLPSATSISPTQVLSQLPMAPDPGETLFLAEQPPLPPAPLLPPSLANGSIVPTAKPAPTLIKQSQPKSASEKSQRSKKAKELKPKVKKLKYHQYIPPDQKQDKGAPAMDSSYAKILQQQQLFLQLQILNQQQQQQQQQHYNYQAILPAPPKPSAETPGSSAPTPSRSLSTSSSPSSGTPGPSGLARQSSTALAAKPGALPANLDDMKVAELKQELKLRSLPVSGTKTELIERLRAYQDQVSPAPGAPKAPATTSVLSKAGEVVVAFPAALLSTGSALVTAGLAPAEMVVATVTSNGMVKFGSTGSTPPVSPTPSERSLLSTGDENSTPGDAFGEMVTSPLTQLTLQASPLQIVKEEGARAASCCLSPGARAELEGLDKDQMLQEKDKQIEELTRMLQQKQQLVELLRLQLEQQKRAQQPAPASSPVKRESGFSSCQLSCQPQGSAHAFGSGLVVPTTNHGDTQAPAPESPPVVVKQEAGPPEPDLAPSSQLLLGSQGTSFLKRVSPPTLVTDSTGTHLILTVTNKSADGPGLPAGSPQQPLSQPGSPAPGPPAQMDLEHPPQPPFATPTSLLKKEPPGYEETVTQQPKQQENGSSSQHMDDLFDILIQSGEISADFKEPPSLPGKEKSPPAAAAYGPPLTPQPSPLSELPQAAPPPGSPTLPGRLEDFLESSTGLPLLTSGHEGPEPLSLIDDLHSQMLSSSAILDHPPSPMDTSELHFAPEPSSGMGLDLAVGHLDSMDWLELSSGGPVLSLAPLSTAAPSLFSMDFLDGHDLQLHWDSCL
Description: Re-ChIP; RAW264 cells or primary BMDMs exposed to hypoxia-reoxygenation; Re-ChIP with indicated antibodies; iNOS promoter (GAPDH promoter as control).

No constants are given. Whether binding was seen depends on the method and setting. Binding can be weak; no strength is given.

On to “NF-κB, endogenous in macrophages (mouse (endogenous in RAW264 and BMDMs))”, for which the binding entry was “binds”.

The values are drawn from paper PMC7315810.
